In PubChem BioAssay AID1035470 (Broad Institute, 2014):
Hit rate of the full screen: of about 1,800 compounds, fewer than 10 were called active. Another 16% or so got no clear call; they are omitted.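 The calls were made as follows: active = compound lowering the normal-ribosome reporter at least twice as much as the humanized-ribosome reporter, growth loss under a set limit; inconclusive = no clear call, values can overlap the other calls; inactive = the rest.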 The list shows a part of the results, in another mix than the full data. Potency and affinity values are given separately.

Experiment: E. coli strain growth, wild-type against G2058 humanized RFP mutant – G2058 mutant RFP vs wild-type GFP, cherry-pick, two tests, dose response (AID 1035470)
Details: E. coli WT-GFP vs G2058-humanized RFP, fluorescence, 24 h; at 50 µM (top of the series)

Activity change, negative = inhibition, inactive:
CCc1nnc(NC(=O)CSc2ncc(-c3ccccc3)[nH]2)s1 -3.58
Clc1ccccc1C1CC(c2ccccc2)=Nc2ccccc2N1 (configuration not stated) -13.3
O=C(OCC(=O)N1CCOCC1)c1cccc(S(=O)(=O)N2CCCc3ccccc32)c1 -11.8
COc1cc(SC)ccc1C(=O)N(Cc1ccccc1)c1ccccn1 -3.19
CCCCNC(=O)c1c(N)[nH]c(C(=O)c2ccccc2)c1-c1ccccn1 -9.97
Cc1ccc(NC(=O)C[n+]2cc(-c3ccccc3)n3c2CCC3)cc1 12.5
O=C(COC(=O)CNC(=O)c1ccc(F)cc1)Nc1cccc(S(=O)(=O)N2CCCC2)c1 0.469
Cc1ccc(-n2c(SCC(N)=O)nnc2-c2cnccn2)cc1 -1.72
Cn1cc(CN(CCO)Cc2cccs2)c(-c2cccc(Cl)c2)n1 -20.2
CCCN1C(=O)C(O)(c2c(C)[nH]c3ccccc23)c2ccccc21 (configuration not stated) -17
COCc1[nH]nc2c1C(c1ccc3c(c1)OCO3)N(c1ccc(OC)cc1)C2=O (configuration not stated) -13
CCN(CC(=O)Nc1cccc(S(=O)(=O)N2CCCC2)c1)CC(=O)Nc1ccccc1OC -14.9
CC(C)=C(c1ccc(Cl)cc1)c1c(N)ncnc1N -3.62
O=S(=O)(Cc1ccc(Cl)cc1)N1CCN(Cc2ccc3c(c2)OCO3)CC1 -9.04
O=C(Cc1ccc(Br)cc1)Nc1cccc(-c2cn3c(n2)SCC3)c1 -18.9
COc1cccc(SCC(=O)N2CCN(c3ccccc3)CC2)c1 -8.2
Cc1ccccc1-n1nnnc1SCCCC(=O)c1ccc(F)cc1 -19
Nc1[nH]c(C(=O)c2ccccc2)c(-c2ccc(Cl)cc2)c1C(=O)NCCc1c[nH]c2ccccc12 -22.3
Cc1ccc(S(=O)(=O)Nc2ccc3c(c2)C(=O)N([C@@H](C)CO)C[C@@H](C)[C@H](CN(C)C(=O)c2ccccc2)OCCCC[C@@H](C)O3)cc1 0.461
COc1ccc(CN2CCNC(=O)C2CC(=O)NCCCC2CCCC2)c(C)c1C (configuration not stated) 0.654
N#Cc1ccc(-c2ccc(C3[C@H]4CNC[C@@H]3N4S(=O)(=O)c3ccc(-c4ccccc4)cc3)cc2)cc1 (some centres not stated) -9.11
c1cc2cc(-c3c(-c4ccc5c(c4)OCO5)noc3-c3ccsc3)ccc2[nH]1 -0.174
CCOc1ccccc1C(=O)NCC(=O)OCCOc1cccc(Cl)c1 -3.78
COc1cc(OC)cc(C(=O)N[C@H](C(=O)OCC(=O)Nc2ccc(F)c(F)c2F)C(C)C)c1 -2.53
COc1ccc(NC(=O)Nc2cccc3c2O[C@H](CN(C)S(=O)(=O)c2ccc(Cl)cc2)[C@@H](C)CN([C@@H](C)CO)C3=O)cc1 -14
Cn1ccc2cc(-c3ccc4ncnc(NCc5cccs5)c4c3)ccc21 -12.9
COc1ccc(CN2C(=O)CC(Cc3cc(C)cc(C)c3)C2=O)cc1OC (configuration not stated) -14.6
Cc1ccc2nc(SCC(=O)c3ccc4c(c3)NC(=O)CO4)[nH]c2c1 -2.27
Cc1ccc(S(=O)(=O)N(C(=O)c2ccncc2)c2ccc(OC(=O)c3ccncc3)cc2)c(C)c1 -4.38
CC1CN(CC(=O)Nc2nc3ccccc3s2)CC(C)O1 (configuration not stated) -0.471
O=C(OCC1COc2ccccc2O1)c1ccccc1F (configuration not stated) -7.69
COc1cccc(NC(=O)C2CCC(CNS(=O)(=O)c3cccc4cccnc34)CC2)c1 (configuration not stated) -15.6
Cc1ccc(C(=O)NCC(=O)OCC(=O)Nc2cccc(S(=O)(=O)N3CCCC3)c2)cc1C -3.75
Fc1ccccc1C1CCN(Cc2nc(CC3CC3)no2)C1 (configuration not stated) -7.8
COC(=O)c1nc(-c2ccc(C)cc2)[nH]c1C(C)(C)C -4.69
COc1ccccc1NC(=O)COC(=O)Cc1c[nH]c2ccccc12 -23.2
CN(C)S(=O)(=O)c1cccc(C(=O)OCC(=O)c2ccc3c(c2)NC(=O)CO3)c1 -8.73
NS(=O)(=O)c1ccc(CCNC(=O)CCCCCNc2nc(=S)[nH]c3ccccc23)cc1 -8.65
Cc1noc(C)c1NC(=O)Nc1ccc2c(c1)C(=O)N([C@H](C)CO)C[C@H](C)[C@H](CN(C)C(=O)Nc1ccc3c(c1)OCO3)OCCCC[C@H](C)O2 15
CCc1cc(CN2CCOCC2)c(NC(=O)c2ccccc2)s1 -6.48
CCNc1nc(N)c(C(=O)C23CC4CC(CC(C4)C2)C3)s1 -9.62
CCN=C1NN=C(c2ccc(C)cc2)CS1 -3.58
Cc1cc(C(=O)COC(=O)CNC(=O)c2ccccc2)c(C)n1CC1CCCO1 (configuration not stated) -18.4
COCc1nnc(NC(=O)c2ccc(S(=O)(=O)N3CCCC3)cc2)o1 -10.3
O=C(COC(=O)C1CC2C=CC1C2)Nc1ccc([N+](=O)[O-])cc1 (configuration not stated) -15.1
Brc1ccc(-c2nc3c4ccccc4ccn3c2Cc2ccccc2)cc1 2.3
Cc1ccc(Cc2c(-c3ccc(C#N)cc3)nc3ccc(Br)cn23)cc1 -5.11
COc1ccccc1CC(=O)NCCc1c[nH]c2ccccc12 3.23
C=CCn1c(C)cc(C(=O)CSc2nnc(C3CC3)n2C2CC2)c1C -7.34
CCN(CC)S(=O)(=O)c1ccc(O)c(C(=O)OCC(=O)NC23CC4CC(CC(C4)C2)C3)c1 -2.43
O=C(CCNc1cccc(Cl)c1)c1cccs1 -1.48
O=C(COC(=O)c1ccc(O)cc1)Nc1ccccc1 -0.941
COc1cc(CCN(C(=O)c2cc3ccccc3[nH]2)C(c2ccccn2)c2nc3ccccc3[nH]2)cc(OC)c1 (configuration not stated) -12.2
O=C(Nc1cccc(F)c1)N1C[C@@H]2[C@H](c3ccccc31)[C@H](CO)N2C(=O)Cc1ccccn1 4.99
CCCCC(=O)N(Cc1ccc2c(c1)OCO2)Cc1nc2ccccc2c(=O)[nH]1 1.04
Cc1cccc(N2Cc3ccc(Br)cc3C2)c1 -4.16
Cc1cc(C)cc(NS(=O)(=O)c2c(C(=O)N3CCCCCC3)c(C)n(C)c2C)c1 -6.84
CC(OC(=O)COc1ccccc1)C(=O)NC1CCCC1 (configuration not stated) -8.33
CC1(C(=O)NS(=O)(=O)c2cccc(C#N)c2)CCN1C(=O)C1(c2ccc(Cl)cc2)CCC1 (configuration not stated) -9.96
COc1ccc(-c2csc3ncn(-c4ccc(C)cc4)c(=O)c23)cc1OC -22.9
Fc1ccc(-c2nc3c(Cl)cc(C(F)(F)F)cn3c2Cc2ccsc2)cc1 0.916
C=C1c2cc3c(cc2NC(=S)N1Cc1ccccc1)OCO3 -11.4
Cc1cccc(NC(=O)CN(C)S(=O)(=O)c2cccs2)c1 -12.2
Nc1ccc(C(=O)Nc2ccc3nc(-c4ccncc4)[nH]c3c2)cc1 -14.9
O=C(CSc1nc2ccccc2n1S(=O)(=O)c1cccc([N+](=O)[O-])c1)NCCc1ccccc1 -5.02
C[C@@H]1CCCCO[C@@H](CN(C)C)[C@H](C)CN([C@@H](C)CO)C(=O)c2cc(NC(=O)Nc3cccc4ccccc34)ccc2O1 17.4
CC1CCc2c(sc3ncn4c(SCC(=O)NCc5ccco5)nnc4c23)C1 (configuration not stated) -3.41
CC(C)(Nc1ccccc1)C(=O)c1ccccc1 -19.6
Cc1cccc(NC(=O)c2c(C)nn(-c3ccccc3)c2Cl)c1 -18
CC[n+]1c(C)cc2c(sc3ccccc32)c1C -11.4
O=C1Nc2ccc(F)cc2C12Nc1ccccc1-c1nnc(SCc3ccccc3)nc1O2 (configuration not stated) -11.2
C=CCNC(=O)c1ccccc1CCc1ccccc1 -12.7
CCOc1ncccc1C(=O)OCC(=O)NCCCc1ccccc1 -20
Cc1cccc(-n2cnc3cc([N+](=O)[O-])ccc32)c1 -3
O=C(Nc1ccc2c(c1)OCCO2)C1C(c2ccccc2)=Nc2ccccc2N1C(=O)c1cccnc1 (configuration not stated) 0.765
O=C1CCCc2ccccc2N1Cc1ccccc1 -20.2
Cc1ccccc1-n1c([C@@H]2C[C@H]2c2ccccc2)n[nH]c1=S -15.5
COc1ccc(C)c2sc(N(CCN(C)C)C(=O)c3ccc(S(=O)(=O)N(C)c4ccccc4)cc3)nc12 4.7
O=C(Nc1ccc(Cl)c(Cl)c1)c1ccc(Cl)c(Cl)c1 -12.7
Cc1cccc(NC(=O)c2nc(S(=O)(=O)Cc3ccccc3)ncc2Cl)c1 -5.02
O=C(CSc1nnc(COc2cccc3cccnc23)o1)c1ccc(F)cc1 -11.1
O=C(CN(c1ccc(F)cc1)S(=O)(=O)c1ccccc1)Nc1ccccc1C(=O)O -12.9
O=C(Cc1c(F)cccc1Cl)N(Cc1ccccc1)c1ccccn1 -16.8
C[C@@H]1CCCCO[C@H](CN(C)C)[C@@H](C)CN([C@H](C)CO)C(=O)c2cc(NC(=O)Nc3cccc4ccccc34)ccc2O1 29.6
Cc1onc(-c2ccccc2Cl)c1C(=O)Nc1ccc(Cl)cn1 -5.73
Nc1ccc(C(=O)OCCCc2nc3cc4ccccc4cc3[nH]2)cc1 -7.66
Cc1noc(C)c1NC(=O)N(C)C[C@H]1OCCCC[C@@H](C)Oc2ccc(NC(=O)Nc3cccc4ccccc34)cc2C(=O)N([C@@H](C)CO)C[C@H]1C 2.78

Some of these compounds in order of number of heavy atoms, ascending:
Activity change, negative = inhibition, inactive:
CCCN1C(=O)C(O)(c2c(C)[nH]c3ccccc23)c2ccccc21 (configuration not stated) -17
COc1ccc(-c2csc3ncn(-c4ccc(C)cc4)c(=O)c23)cc1OC -22.9
COc1cc(OC)cc(C(=O)N[C@H](C(=O)OCC(=O)Nc2ccc(F)c(F)c2F)C(C)C)c1 -2.53

A stretch taken from the entries so far:
Activity change, negative = inhibition, inactive:
CC(OC(=O)COc1ccccc1)C(=O)NC1CCCC1 (configuration not stated) -8.33
CC1(C(=O)NS(=O)(=O)c2cccc(C#N)c2)CCN1C(=O)C1(c2ccc(Cl)cc2)CCC1 (configuration not stated) -9.96
COc1ccc(-c2csc3ncn(-c4ccc(C)cc4)c(=O)c23)cc1OC -22.9
